Assay results reported in PMC11005723, “Development of Complementary Photo‐arginine/lysine to Promote Discovery of Arg/Lys hPTMs Interactomes” (Advanced Science, 2024).
This continues a long series; more values of the same kind are listed elsewhere.

Test system: HEK293T nuclear lysates
Assay: SILAC‐based pull‐down proteomics H4K5me1/H4K5 (probes 6/5)
Format: binding, human

probe 6: H4K5me peptide probe with photo‐arginine R(dz) and K(biotin) (SGRGKGGKGLGKGGK; photo-arginine R(dz) at 3; monomethyl-lysine at 5; K(biotin) at 15)
C6 log (H4K5me/H4K5) (protein Q8IVW6 ARID3B, run C6): 0.5018
B6 log2 (H4K5me/H4K5) (protein Q8N1G0 ZNF687, run B6): 1.472
C6 log (H4K5me/H4K5) (protein Q8N1G0 ZNF687, run C6): 1.472
B6 log2 (H4K5me/H4K5) (protein Q8N3U4 STAG2, run B6): 1.1765
C6 log (H4K5me/H4K5) (protein Q8N3U4 STAG2, run C6): 1.1765
B6 log2 (H4K5me/H4K5) (protein Q8N9T8 KRI1, run B6): 0.1247
C6 log (H4K5me/H4K5) (protein Q8N9T8 KRI1, run C6): -0.00452
B6 log2 (H4K5me/H4K5) (protein Q8NE71 ABCF1, run B6): 0.6526
C6 log (H4K5me/H4K5) (protein Q8NE71 ABCF1, run C6): 0.6526
B6 log2 (H4K5me/H4K5) (protein Q8TEX9 IPO4, run B6): 0.2773
C6 log (H4K5me/H4K5) (protein Q8TEX9 IPO4, run C6): 0.1155
B6 log2 (H4K5me/H4K5) (protein Q9BR76 CORO1B, run B6): 0.2695
C6 log (H4K5me/H4K5) (protein Q9BR76 CORO1B, run C6): 0.2946
B6 log2 (H4K5me/H4K5) (protein Q9BVA1 TUBB2B, run B6): 0.275
C6 log (H4K5me/H4K5) (protein Q9BVA1 TUBB2B, run C6): 0.3193
B6 log2 (H4K5me/H4K5) (protein Q9H0D6 XRN2, run B6): 0.3354
C6 log (H4K5me/H4K5) (protein Q9H0D6 XRN2, run C6): 0.1529
B6 log2 (H4K5me/H4K5) (protein Q9H4L4 SENP3, run B6): 0.6358
C6 log (H4K5me/H4K5) (protein Q9H4L4 SENP3, run C6): 0.6358
B6 log2 (H4K5me/H4K5) (protein Q9HB71 CACYBP, run B6): 0.3301
C6 log (H4K5me/H4K5) (protein Q9HB71 CACYBP, run C6): 0.2706
B6 log2 (H4K5me/H4K5) (protein Q9HC35 EML4, run B6): 0.4829
C6 log (H4K5me/H4K5) (protein Q9HC35 EML4, run C6): 0.2579
B6 log2 (H4K5me/H4K5) (protein Q9NPJ6 MED4, run B6): 0.3438
C6 log (H4K5me/H4K5) (protein Q9NPJ6 MED4, run C6): 0.2919
B6 log2 (H4K5me/H4K5) (protein Q9NQW6 ANLN, run B6): 0.4347
C6 log (H4K5me/H4K5) (protein Q9NQW6 ANLN, run C6): 0.05664
B6 log2 (H4K5me/H4K5) (protein Q9NX58 LYAR, run B6): 0.2731
C6 log (H4K5me/H4K5) (protein Q9NX58 LYAR, run C6): 0.3089
B6 log2 (H4K5me/H4K5) (protein Q9NYF8 BCLAF1, run B6): 0.1257
C6 log (H4K5me/H4K5) (protein Q9NYF8 BCLAF1, run C6): 0.06966
B6 log2 (H4K5me/H4K5) (protein Q9UGP8 SEC63, run B6): 0.3336
C6 log (H4K5me/H4K5) (protein Q9UGP8 SEC63, run C6): 0.1543
B6 log2 (H4K5me/H4K5) (protein Q9Y2W2 WBP11, run B6): 0.1222
C6 log (H4K5me/H4K5) (protein Q9Y2W2 WBP11, run C6): -0.1351
B6 log2 (H4K5me/H4K5) (protein Q9Y3B9 RRP15, run B6): 0.3025
C6 log (H4K5me/H4K5) (protein Q9Y3B9 RRP15, run C6): 0.1866
B6 log2 (H4K5me/H4K5) (protein Q9Y277 VDAC3, run B6): 0.3994
C6 log (H4K5me/H4K5) (protein Q9Y277 VDAC3, run C6): 0.7044
B6 log2 (H4K5me/H4K5) (protein Q9Y450 HBS1L, run B6): 0.5678
C6 log (H4K5me/H4K5) (protein Q9Y450 HBS1L, run C6): 0.5678
B6 log2 (H4K5me/H4K5) (protein Q9Y617 PSAT1, run B6): 0.4443
C6 log (H4K5me/H4K5) (protein Q9Y617 PSAT1, run C6): 0.9008
B6 log2 (H4K5me/H4K5) (protein Q53F19 C17orf85, run B6): 0.5032
C6 log (H4K5me/H4K5) (protein Q53F19 C17orf85, run C6): 0.5032
B6 log2 (H4K5me/H4K5) (protein Q86W42 THOC6, run B6): 0.5386
C6 log (H4K5me/H4K5) (protein Q86W42 THOC6, run C6): 0.5386
B6 log2 (H4K5me/H4K5) (protein Q86XP3 DDX42, run B6): 0.1334
C6 log (H4K5me/H4K5) (protein Q86XP3 DDX42, run C6): 0.3856
B6 log2 (H4K5me/H4K5) (protein Q96DI7 SNRNP40, run B6): 0.4677
C6 log (H4K5me/H4K5) (protein Q96DI7 SNRNP40, run C6): -0.1362
B6 log2 (H4K5me/H4K5) (protein Q96I25 RBM17, run B6): 1.457
C6 log (H4K5me/H4K5) (protein Q96I25 RBM17, run C6): 1.457
B6 log2 (H4K5me/H4K5) (protein Q96IZ0 PAWR, run B6): 0.1321
C6 log (H4K5me/H4K5) (protein Q96IZ0 PAWR, run C6): -0.08445
B6 log2 (H4K5me/H4K5) (protein Q96JB3 HIC2, run B6): 0.3777
C6 log (H4K5me/H4K5) (protein Q96JB3 HIC2, run C6): 0.2014
B6 log2 (H4K5me/H4K5) (protein Q01081 U2AF1, run B6): 0.287
C6 log (H4K5me/H4K5) (protein Q01081 U2AF1, run C6): 0.1163
B6 log2 (H4K5me/H4K5) (protein Q04917 YWHAH, run B6): 1.21
C6 log (H4K5me/H4K5) (protein Q04917 YWHAH, run C6): 1.21
B6 log2 (H4K5me/H4K5) (protein Q06587 RING1, run B6): 0.3761
C6 log (H4K5me/H4K5) (protein Q06587 RING1, run C6): 0.01192
B6 log2 (H4K5me/H4K5) (protein Q07955 SRSF1, run B6): 0.2855
C6 log (H4K5me/H4K5) (protein Q07955 SRSF1, run C6): 0.2077
B6 log2 (H4K5me/H4K5) (protein Q08945 SSRP1, run B6): 0.3762
C6 log (H4K5me/H4K5) (protein Q08945 SSRP1, run C6): 0.3612
B6 log2 (H4K5me/H4K5) (protein Q13769 THOC5, run B6): 0.3716
C6 log (H4K5me/H4K5) (protein Q13769 THOC5, run C6): 0.04753
B6 log2 (H4K5me/H4K5) (protein Q13838 DDX39B, run B6): 0.1205
C6 log (H4K5me/H4K5) (protein Q13838 DDX39B, run C6): 0.01208
B6 log2 (H4K5me/H4K5) (protein Q14566 MCM6, run B6): 0.1312
C6 log (H4K5me/H4K5) (protein Q14566 MCM6, run C6): 0.07396
B6 log2 (H4K5me/H4K5) (protein Q14669 TRIP12, run B6): 0.5234
C6 log (H4K5me/H4K5) (protein Q14669 TRIP12, run C6): 0.5234
B6 log2 (H4K5me/H4K5) (protein Q15007 WTAP, run B6): 0.3545
C6 log (H4K5me/H4K5) (protein Q15007 WTAP, run C6): 0.2255
B6 log2 (H4K5me/H4K5) (protein Q15061 WDR43, run B6): 0.1445
C6 log (H4K5me/H4K5) (protein Q15061 WDR43, run C6): 0.005576
B6 log2 (H4K5me/H4K5) (protein Q15424 SAFB, run B6): 0.396
C6 log (H4K5me/H4K5) (protein Q15424 SAFB, run C6): 0.2002
B6 log2 (H4K5me/H4K5) (protein Q15691 MAPRE1, run B6): 0.124
C6 log (H4K5me/H4K5) (protein Q15691 MAPRE1, run C6): -0.1558
B6 log2 (H4K5me/H4K5) (protein Q16527 CSRP2, run B6): 0.4687
C6 log (H4K5me/H4K5) (protein Q16527 CSRP2, run C6): 0.5019
B6 log2 (H4K5me/H4K5) (protein Q92541 RTF1, run B6): 0.277
C6 log (H4K5me/H4K5) (protein Q92541 RTF1, run C6): 0.001749
B6 log2 (H4K5me/H4K5) (protein Q92576 PHF3, run B6): 0.2896
C6 log (H4K5me/H4K5) (protein Q92576 PHF3, run C6): 0.2433
B6 log2 (H4K5me/H4K5) (protein Q92922 SMARCC1, run B6): 0.1177
C6 log (H4K5me/H4K5) (protein Q92922 SMARCC1, run C6): 0.1599
B6 log2 (H4K5me/H4K5) (protein Q99496 RNF2, run B6): 0.1375
C6 log (H4K5me/H4K5) (protein Q99496 RNF2, run C6): -0.8366
B6 log2 (H4K5me/H4K5) (protein Q99714 HSD17B10, run B6): 0.3957
C6 log (H4K5me/H4K5) (protein Q99714 HSD17B10, run C6): -0.4382
B6 log2 (H4K5me/H4K5) (protein Q99986 VRK1, run B6): 0.2848
C6 log (H4K5me/H4K5) (protein Q99986 VRK1, run C6): 0.4336
B6 log2 (H4K5me/H4K5) (protein RAB18 (Q9NP72), run B6): 0.0489
C6 log (H4K5me/H4K5) (protein RAB18 (Q9NP72), run C6): -0.1017
B6 log2 (H4K5me/H4K5) (protein RAD18 (Q9NS91), SILAC run B6): -0.2589
C6 log (H4K5me/H4K5) (protein RAD18 (Q9NS91), SILAC run C6): -0.1846
B6 log2 (H4K5me/H4K5) (protein RAD51AP1 (Q96B01), SILAC run B6): -0.3001
C6 log (H4K5me/H4K5) (protein RAD51AP1 (Q96B01), SILAC run C6): 0.009603
B6 log2 (H4K5me/H4K5) (protein RAN (P62826), run B6): 0.07765
C6 log (H4K5me/H4K5) (protein RAN (P62826), run C6): 0.004508
B6 log2 (H4K5me/H4K5) (protein RANBP1 (P43487), run B6): 0.09393
C6 log (H4K5me/H4K5) (protein RANBP1 (P43487), run C6): 0.1855
B6 log2 (H4K5me/H4K5) (protein RANBP2 (P49792), run B6): 0.0178
C6 log (H4K5me/H4K5) (protein RANBP2 (P49792), run C6): 0.2411
B6 log2 (H4K5me/H4K5) (protein RANBP3 (Q9H6Z4), SILAC run B6): -0.3884
C6 log (H4K5me/H4K5) (protein RANBP3 (Q9H6Z4), SILAC run C6): -0.3026
B6 log2 (H4K5me/H4K5) (protein RANGAP1 (P46060), run B6): 0.08611
C6 log (H4K5me/H4K5) (protein RANGAP1 (P46060), run C6): 0.09539
